According to the supplement of paper PMC10849652:
The other results are listed elsewhere or left out. Residues, ends and D or L forms follow the SMILES beside them. *: point of attachment. Cbz = O=C(OCc1ccccc1)*

Protein sequences, listed by entry. Tags and fused reporters are not part of them. Lines headed by an entry give the natural chain unless they say otherwise; changes in a name come on top.
UniProt O95544: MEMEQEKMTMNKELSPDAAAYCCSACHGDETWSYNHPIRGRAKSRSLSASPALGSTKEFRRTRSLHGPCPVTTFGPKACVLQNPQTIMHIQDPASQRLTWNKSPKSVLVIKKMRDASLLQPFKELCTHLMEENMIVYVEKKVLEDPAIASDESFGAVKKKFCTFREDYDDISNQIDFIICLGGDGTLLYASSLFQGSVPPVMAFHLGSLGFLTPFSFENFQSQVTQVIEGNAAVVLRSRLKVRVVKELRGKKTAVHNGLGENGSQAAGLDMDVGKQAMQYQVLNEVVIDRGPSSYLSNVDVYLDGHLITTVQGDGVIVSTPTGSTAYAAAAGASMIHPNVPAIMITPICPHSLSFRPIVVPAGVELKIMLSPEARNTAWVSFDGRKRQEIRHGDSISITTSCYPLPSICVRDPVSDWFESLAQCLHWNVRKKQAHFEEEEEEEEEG
UniProt Q5TEU4: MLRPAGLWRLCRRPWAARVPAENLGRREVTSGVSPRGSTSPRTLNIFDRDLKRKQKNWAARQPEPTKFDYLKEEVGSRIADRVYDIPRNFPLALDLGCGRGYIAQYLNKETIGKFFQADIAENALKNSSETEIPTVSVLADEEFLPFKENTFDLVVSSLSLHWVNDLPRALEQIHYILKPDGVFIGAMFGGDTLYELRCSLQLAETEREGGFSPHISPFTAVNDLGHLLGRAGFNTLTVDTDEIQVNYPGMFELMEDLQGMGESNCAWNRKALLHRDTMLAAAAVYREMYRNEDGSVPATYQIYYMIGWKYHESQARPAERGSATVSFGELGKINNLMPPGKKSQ
UniProt O76041: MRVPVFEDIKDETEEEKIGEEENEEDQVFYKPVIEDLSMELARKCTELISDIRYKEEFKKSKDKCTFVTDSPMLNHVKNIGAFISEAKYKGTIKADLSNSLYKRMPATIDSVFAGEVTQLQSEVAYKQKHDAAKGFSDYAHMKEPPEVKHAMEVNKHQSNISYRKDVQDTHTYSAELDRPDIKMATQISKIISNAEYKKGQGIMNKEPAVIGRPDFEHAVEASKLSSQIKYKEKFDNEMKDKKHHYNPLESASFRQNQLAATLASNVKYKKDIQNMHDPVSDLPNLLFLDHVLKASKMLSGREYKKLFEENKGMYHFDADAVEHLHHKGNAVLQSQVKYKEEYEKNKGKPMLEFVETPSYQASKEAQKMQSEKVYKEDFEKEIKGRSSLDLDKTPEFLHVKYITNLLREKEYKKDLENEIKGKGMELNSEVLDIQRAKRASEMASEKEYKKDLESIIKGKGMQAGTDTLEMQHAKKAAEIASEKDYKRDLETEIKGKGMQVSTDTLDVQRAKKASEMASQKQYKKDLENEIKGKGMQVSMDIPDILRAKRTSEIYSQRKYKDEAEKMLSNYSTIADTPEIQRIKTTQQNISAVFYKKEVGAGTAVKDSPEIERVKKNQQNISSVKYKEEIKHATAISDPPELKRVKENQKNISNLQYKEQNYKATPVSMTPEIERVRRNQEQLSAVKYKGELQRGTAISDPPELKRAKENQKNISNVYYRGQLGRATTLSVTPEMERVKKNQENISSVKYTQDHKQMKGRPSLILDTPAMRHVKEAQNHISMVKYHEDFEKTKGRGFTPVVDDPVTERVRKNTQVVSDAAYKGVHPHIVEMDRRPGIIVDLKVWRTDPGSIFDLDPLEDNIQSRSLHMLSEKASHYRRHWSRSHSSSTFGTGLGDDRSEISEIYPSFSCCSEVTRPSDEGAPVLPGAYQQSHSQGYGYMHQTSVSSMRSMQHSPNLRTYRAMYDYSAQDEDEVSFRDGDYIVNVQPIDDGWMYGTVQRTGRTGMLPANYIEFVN
UniProt O95298, whole entry, looked up: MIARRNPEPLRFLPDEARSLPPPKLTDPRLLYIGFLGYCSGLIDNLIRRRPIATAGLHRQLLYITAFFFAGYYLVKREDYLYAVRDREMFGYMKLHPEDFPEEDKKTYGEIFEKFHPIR
UniProt O43674, whole entry, looked up: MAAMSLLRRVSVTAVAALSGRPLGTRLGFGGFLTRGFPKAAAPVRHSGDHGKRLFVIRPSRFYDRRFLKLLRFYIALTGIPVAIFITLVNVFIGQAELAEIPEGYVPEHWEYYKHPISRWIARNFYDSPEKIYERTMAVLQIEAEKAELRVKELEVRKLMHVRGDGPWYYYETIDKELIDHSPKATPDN
UniProt P56181: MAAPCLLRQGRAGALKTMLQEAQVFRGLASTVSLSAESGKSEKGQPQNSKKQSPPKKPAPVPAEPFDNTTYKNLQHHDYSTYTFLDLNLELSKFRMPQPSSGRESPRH
UniProt P42695: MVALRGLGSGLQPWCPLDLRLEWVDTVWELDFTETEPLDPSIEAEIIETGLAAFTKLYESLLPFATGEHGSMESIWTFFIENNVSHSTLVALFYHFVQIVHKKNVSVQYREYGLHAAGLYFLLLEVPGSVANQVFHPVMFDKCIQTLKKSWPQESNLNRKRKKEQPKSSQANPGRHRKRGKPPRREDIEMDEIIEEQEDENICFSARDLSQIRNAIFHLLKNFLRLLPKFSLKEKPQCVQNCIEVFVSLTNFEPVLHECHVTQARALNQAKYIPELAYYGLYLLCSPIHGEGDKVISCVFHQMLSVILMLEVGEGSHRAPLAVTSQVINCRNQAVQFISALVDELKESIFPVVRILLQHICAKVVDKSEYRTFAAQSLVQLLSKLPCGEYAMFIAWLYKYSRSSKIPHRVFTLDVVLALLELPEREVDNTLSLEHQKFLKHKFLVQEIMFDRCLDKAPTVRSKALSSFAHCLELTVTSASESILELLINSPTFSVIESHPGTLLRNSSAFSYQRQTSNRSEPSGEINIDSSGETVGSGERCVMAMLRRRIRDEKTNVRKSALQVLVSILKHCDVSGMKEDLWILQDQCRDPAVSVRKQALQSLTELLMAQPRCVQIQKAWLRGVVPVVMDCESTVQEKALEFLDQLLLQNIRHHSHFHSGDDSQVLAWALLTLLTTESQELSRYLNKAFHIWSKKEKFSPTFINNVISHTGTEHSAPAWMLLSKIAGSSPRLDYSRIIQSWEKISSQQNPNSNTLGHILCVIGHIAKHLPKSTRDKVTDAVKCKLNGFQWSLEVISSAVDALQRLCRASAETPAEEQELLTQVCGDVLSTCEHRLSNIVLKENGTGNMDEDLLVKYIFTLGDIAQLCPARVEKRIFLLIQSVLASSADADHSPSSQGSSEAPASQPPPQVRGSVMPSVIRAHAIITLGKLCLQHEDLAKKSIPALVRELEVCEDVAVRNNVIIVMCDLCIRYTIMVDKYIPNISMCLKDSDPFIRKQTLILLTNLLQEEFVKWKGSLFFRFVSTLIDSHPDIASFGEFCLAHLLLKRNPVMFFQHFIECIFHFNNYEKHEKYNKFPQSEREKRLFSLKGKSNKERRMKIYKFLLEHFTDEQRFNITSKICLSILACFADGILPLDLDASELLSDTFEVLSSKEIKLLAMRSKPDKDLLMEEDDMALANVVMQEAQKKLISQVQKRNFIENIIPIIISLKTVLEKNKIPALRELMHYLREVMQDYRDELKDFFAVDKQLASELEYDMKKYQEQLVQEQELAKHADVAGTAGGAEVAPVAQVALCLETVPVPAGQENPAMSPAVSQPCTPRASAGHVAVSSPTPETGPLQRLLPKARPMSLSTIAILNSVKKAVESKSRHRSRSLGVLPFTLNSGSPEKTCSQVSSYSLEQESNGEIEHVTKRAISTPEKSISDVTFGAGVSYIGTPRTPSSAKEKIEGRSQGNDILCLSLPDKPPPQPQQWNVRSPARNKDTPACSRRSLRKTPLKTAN
UniProt Q9UJ70, whole entry, looked up: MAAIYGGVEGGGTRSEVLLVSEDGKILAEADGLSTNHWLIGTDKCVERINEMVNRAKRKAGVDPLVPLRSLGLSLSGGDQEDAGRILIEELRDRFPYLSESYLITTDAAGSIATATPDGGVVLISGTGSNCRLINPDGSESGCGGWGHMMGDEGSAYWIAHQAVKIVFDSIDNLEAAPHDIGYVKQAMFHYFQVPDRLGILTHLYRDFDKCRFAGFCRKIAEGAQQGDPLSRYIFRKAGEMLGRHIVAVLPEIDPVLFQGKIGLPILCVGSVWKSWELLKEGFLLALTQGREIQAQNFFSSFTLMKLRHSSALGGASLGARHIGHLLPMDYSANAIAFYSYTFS
UniProt Q14686, whole entry, looked up: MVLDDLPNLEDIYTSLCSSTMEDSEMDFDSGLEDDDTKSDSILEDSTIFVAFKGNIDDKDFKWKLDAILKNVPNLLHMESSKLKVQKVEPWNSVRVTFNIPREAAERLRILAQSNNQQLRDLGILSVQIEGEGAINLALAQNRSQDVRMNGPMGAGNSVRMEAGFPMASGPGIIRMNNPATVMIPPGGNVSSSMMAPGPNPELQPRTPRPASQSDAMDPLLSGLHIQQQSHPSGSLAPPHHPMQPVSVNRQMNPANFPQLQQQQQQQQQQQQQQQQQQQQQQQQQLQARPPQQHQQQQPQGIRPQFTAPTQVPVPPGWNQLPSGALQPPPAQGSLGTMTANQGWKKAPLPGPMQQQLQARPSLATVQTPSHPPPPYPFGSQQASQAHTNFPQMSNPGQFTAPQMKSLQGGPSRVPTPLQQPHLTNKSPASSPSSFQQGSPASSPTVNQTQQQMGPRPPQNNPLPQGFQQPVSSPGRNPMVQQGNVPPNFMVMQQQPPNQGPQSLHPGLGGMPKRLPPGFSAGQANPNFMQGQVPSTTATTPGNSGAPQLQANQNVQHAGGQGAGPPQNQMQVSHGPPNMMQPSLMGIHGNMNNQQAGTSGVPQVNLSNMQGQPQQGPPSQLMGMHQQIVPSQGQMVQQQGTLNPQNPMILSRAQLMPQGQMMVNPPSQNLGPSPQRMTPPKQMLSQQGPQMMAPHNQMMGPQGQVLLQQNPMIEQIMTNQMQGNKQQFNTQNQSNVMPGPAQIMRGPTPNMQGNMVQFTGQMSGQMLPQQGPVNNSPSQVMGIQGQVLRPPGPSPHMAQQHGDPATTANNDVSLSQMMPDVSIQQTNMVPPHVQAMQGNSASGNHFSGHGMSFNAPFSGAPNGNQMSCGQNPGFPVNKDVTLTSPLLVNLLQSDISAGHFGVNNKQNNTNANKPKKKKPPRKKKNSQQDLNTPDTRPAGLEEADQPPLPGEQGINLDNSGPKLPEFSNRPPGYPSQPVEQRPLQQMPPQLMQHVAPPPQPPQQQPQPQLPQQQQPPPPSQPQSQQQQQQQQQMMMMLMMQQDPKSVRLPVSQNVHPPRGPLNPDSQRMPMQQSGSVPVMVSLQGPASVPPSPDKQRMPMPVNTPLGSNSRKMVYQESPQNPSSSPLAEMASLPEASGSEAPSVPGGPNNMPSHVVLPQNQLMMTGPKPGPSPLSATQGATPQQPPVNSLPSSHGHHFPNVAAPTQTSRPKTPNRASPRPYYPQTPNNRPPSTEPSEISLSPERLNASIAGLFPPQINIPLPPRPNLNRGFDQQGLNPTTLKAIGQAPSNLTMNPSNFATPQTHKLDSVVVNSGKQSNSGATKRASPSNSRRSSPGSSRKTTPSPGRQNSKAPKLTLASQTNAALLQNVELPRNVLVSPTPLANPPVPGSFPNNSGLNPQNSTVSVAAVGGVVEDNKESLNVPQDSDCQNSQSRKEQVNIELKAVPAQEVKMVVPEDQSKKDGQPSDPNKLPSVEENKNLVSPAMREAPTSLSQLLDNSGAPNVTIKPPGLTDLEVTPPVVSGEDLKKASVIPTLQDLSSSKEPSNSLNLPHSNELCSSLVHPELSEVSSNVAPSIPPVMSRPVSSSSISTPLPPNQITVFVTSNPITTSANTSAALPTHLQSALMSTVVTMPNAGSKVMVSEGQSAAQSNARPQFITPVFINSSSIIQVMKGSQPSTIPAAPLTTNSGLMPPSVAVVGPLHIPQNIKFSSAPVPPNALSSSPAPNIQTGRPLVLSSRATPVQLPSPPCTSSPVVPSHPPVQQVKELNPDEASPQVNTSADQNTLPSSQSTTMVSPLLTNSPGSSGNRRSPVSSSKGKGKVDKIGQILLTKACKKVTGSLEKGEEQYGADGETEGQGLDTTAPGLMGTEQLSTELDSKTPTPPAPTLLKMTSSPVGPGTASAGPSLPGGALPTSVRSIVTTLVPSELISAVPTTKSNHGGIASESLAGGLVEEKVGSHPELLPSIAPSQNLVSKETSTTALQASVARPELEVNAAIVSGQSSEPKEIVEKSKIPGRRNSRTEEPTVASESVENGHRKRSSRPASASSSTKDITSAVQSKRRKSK
UniProt Q8IW45: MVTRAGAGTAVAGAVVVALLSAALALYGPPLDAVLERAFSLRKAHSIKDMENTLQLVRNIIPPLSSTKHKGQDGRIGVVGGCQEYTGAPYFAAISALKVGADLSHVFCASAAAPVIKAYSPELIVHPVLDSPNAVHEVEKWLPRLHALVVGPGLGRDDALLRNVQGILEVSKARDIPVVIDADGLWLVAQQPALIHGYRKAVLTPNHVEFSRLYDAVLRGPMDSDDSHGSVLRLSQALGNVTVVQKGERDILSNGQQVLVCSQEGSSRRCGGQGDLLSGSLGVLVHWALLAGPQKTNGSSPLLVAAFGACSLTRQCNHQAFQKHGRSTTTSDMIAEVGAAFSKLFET
UniProt O43920, whole entry, looked up: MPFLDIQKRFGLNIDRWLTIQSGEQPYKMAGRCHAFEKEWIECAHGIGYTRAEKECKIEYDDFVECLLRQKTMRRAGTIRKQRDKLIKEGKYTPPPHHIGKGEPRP

Experiments:
Assay in all cases: log2 fold change, soluble protein after heating vs DMSO (PISA); higher = thermal stabilisation; K562 cells, 10 uM, 30 min; active = over 0.2 and 3.5 SD of the protein, either way, in both replicates (recomputed)
erlotinib = compound: C#Cc1cccc(Nc2ncnc3cc(OCCOC)c(OCCOC)cc23)c1 [erlotinib]
Method in brief: (§1)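 Soluble protein was defined as the supernatant after 21,000xg for 90 min. It came from K562 cells at 2×10^6 cells/mL given 10 μM compound for 30 min, heated in aliquots for 3 min across 48°C-58°C, pooled, and extracted in PBS with 0.5% NP-40 at 4°C, and was quantified by TMTpro 16plex LC-MS/MS with equalised channel sums. Thermal stability against control samples, from duplicates, is reported as log2 fold change.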

[1] = compound: C/C(=N\NC(=O)C1=CC(=CC=C1)S(=O)(=O)N2CCOCC2)/C3=C(C=CC(=C3)Cl)O
Method in brief: as §1

[2] = compound: C1=CC(=C(C=C1Cl)C2=NC3=NC=CN=C3C(=N2)NC4=CC=NC=C4)F
Method in brief: as §1

[3] = compound: C1=CC(=CC=C1C2=NC3=C(N2)C=C(C=C3)C(=O)N)OC4=CC=C(C=C4)Cl
Method in brief: as §1

[4] = compound: C1=CC2=C(C=CC(=C2)/C=C\3/C(=O)NC(=NCC4=CC=CS4)S3)N=C1
Method in brief: as §1

[5] = compound: C1=CC2=NC=CN=C2C=C1/C=C/3\C(=O)NC(=O)S3
Method in brief: as §1

[6] = compound: C1=CC=C(C=C1)C2=NC(=C(N2)C3=CC=NC=C3)C4=CC(=C(C=C4)Cl)O
Method in brief: as §1

[7] = compound: C1=CC=C2C(=C1)C3=NNC4=CC=CC(=C43)C2=O
Method in brief: as §1

[8] = compound: C1CCN(C1)C(=O)NC2=CC=CC(=C2)NC3=NC=C(C(=N3)NCCC4=CN=CN4)Br
Method in brief: as §1

[9] = compound: C1CN(CCC1(CC2=CC=C(C=C2)Cl)N)C3=NC=NC4=C3C=CN4
Method in brief: as §1

IRAK-1-4 Inhibitor I = compound: C1COCCN1CCN2C3=CC=CC=C3N=C2NC(=O)C4=CC(=CC=C4)[N+](=O)[O-] [IRAK-1-4 Inhibitor I]
Method in brief: as §1

ibrutinib = compound: C=CC(=O)N1CCC[C@@H](n2nc(-c3ccc(Oc4ccccc4)cc3)c3c(N)ncnc32)C1 [ibrutinib]
Method in brief: as §1

[10] = compound: CC(=O)c1cnc2ccc(-c3cc(Cl)c(O)c(Cl)c3)nc2c1N[C@H]1CC[C@H](CN(C)C)CC1
Method in brief: as §1

ralimetinib = compound: CC(C)(C)Cn1c(N)nc2ccc(-c3[nH]c(C(C)(C)C)nc3-c3ccc(F)cc3)nc21 [ralimetinib]
Method in brief: as §1

[11] = compound: CC(C)(O)CC(=O)NCCn1ccc2ncnc(Nc3ccc(Oc4cccc(C(F)(F)F)c4)c(Cl)c3)c21
Method in brief: as §1

[12] = compound: CC(C)C1=C2N=C(C=C(N2N=C1)NCC3=CC=CC=C3)NCCCCCCN
Method in brief: as §1

[13] = compound: CC(C)C[C@@H](C=O)NC(=O)[C@H](CC(C)C)NC(=O)[C@H](CC(C)C)NC(=O)OCc1ccccc1
Method in brief: as §1

pinometostat = compound: CC(C)N(C[C@H]1O[C@@H](n2cnc3c(N)ncnc32)[C@H](O)[C@@H]1O)[C@H]1C[C@@H](CCc2nc3cc(C(C)(C)C)ccc3[nH]2)C1 [pinometostat]
Method in brief: as §1

[14] = compound: CC1=C(C(CC(=O)N1)C2=CC=C(C=C2)C(F)(F)F)C(=O)NC3=C(C=C4C(=C3)C=NN4)F
Method in brief: as §1

[15] = compound: CC1=C(C2=C(C=C1)C(=O)C3=CC=CC=C3N2CCCN)C
Method in brief: as §1

Measured: log2 fold change

NBAS (UniProt A2RRP1)
inactive: erlotinib 0.049 | [1] 0.003 | [2] -0.249 | [3] -0.012 | [4] 0.066 | [5] -0.021 | [6] 0.023 | [7] 0.023 | [8] -0.031 | [9] -0.192 | IRAK-1-4 Inhibitor I -0.387 | ibrutinib 0.033 | [10] 0.044 | ralimetinib 0.198 | [11] -0.001 | [12] -0.33 | [13] 0.123 | pinometostat 0.423 | [14] -0.085 | [15] -0.055

NCBP1 (UniProt Q09161)
inactive: erlotinib -0.009 | [1] 0.013 | [2] 0.032 | [3] -0.01 | [4] -0.015 | [5] 0.024 | [6] 0.04 | [7] -0.009 | [8] -0.021 | [9] -0.028 | IRAK-1-4 Inhibitor I 0 | ibrutinib -0.002 | [10] 0.017 | ralimetinib -0.014 | [11] -0.042 | [12] -0.003 | [13] -0.028 | pinometostat 0.001 | [14] 0.028 | [15] 0.125

NADK (UniProt O95544)
inactive: erlotinib 0.069 | [1] 0.015 | [2] 0.014 | [3] 0 | [4] -0.015 | [5] 0.01 | [6] -0.013 | [7] -0.022 | [8] 0.024 | [9] 0.074 | IRAK-1-4 Inhibitor I 0.028 | ibrutinib 0.032 | [10] -0.031 | ralimetinib -0.053 | [11] -0.023 | [12] 0.051 | [13] 0.011 | pinometostat -0.055 | [14] 0.012 | [15] -0.008

NDUFAF5 (UniProt Q5TEU4)
inactive: erlotinib 0.007 | [1] -0.069 | [2] 0.024 | [3] 0.02 | [4] 0.013 | [5] 0.009 | [6] -0.118 | [7] -0.009 | [8] 0.022 | [9] 0.07 | IRAK-1-4 Inhibitor I 0.007 | ibrutinib 0.119 | [10] 0.009 | ralimetinib -0.217 | [11] -0.044 | [12] 0.031 | [13] -0.026 | pinometostat 0.005 | [14] 0.011 | [15] -0.04

2 entries drawn at random from those above, as already listed:
NCBP1 (UniProt Q09161)
inactive: erlotinib -0.009 | [1] 0.013 | [2] 0.032 | [3] -0.01 | [4] -0.015 | [5] 0.024 | [6] 0.04 | [7] -0.009 | [8] -0.021 | [9] -0.028 | IRAK-1-4 Inhibitor I 0 | ibrutinib -0.002 | [10] 0.017 | ralimetinib -0.014 | [11] -0.042 | [12] -0.003 | [13] -0.028 | pinometostat 0.001 | [14] 0.028 | [15] 0.125

NDUFAF5 (UniProt Q5TEU4)
inactive: erlotinib 0.007 | [1] -0.069 | [2] 0.024 | [3] 0.02 | [4] 0.013 | [5] 0.009 | [6] -0.118 | [7] -0.009 | [8] 0.022 | [9] 0.07 | IRAK-1-4 Inhibitor I 0.007 | ibrutinib 0.119 | [10] 0.009 | ralimetinib -0.217 | [11] -0.044 | [12] 0.031 | [13] -0.026 | pinometostat 0.005 | [14] 0.011 | [15] -0.04

(continued)

NAGA (UniProt P17050)
inactive: erlotinib 0.04 | [1] -0.014 | [2] 0.001 | [3] -0.026 | [4] -0.012 | [5] 0.009 | [6] -0.003 | [7] 0.02 | [8] 0.064 | [9] 0.041 | IRAK-1-4 Inhibitor I -0.01 | ibrutinib 0.014 | [10] -0.036 | ralimetinib -0.036 | [11] -0.014 | [12] -0.118 | [13] 0.008 | pinometostat -0.033 | [14] 0.061 | [15] -0.013

NEBL isoform 2 (UniProt O76041)
inactive: erlotinib 0.074 | [1] -0.04 | [2] 0.024 | [3] -0.011 | [4] 0.028 | [5] 0.031 | [6] 0.003 | [7] -0.063 | [8] 0.046 | [9] 0.034 | IRAK-1-4 Inhibitor I 0.015 | ibrutinib 0.012 | [10] -0.013 | ralimetinib 0.017 | [11] 0.014 | [12] 0.036 | [13] 0.009 | pinometostat -0.065 | [14] 0.006 | [15] 0.004

NDUFC2 (UniProt O95298)
inactive: erlotinib -0.019 | [1] 0.136 | [2] 0.117 | [3] 0.007 | [4] 0.071 | [5] 0.087 | [6] -0.017 | [7] -0.004 | [8] 0.011 | [9] -0.012 | IRAK-1-4 Inhibitor I -0.112 | ibrutinib -0.018 | [10] 0.005 | ralimetinib -0.158 | [11] -0.066 | [12] -0.105 | [13] 0.104 | pinometostat -0.076 | [14] 0.026 | [15] 0.053

NACA (UniProt E9PAV3)
inactive: erlotinib 0.031 | [1] -0.061 | [2] 0 | [3] 0.001 | [4] 0.006 | [5] 0.011 | [6] -0.008 | [7] -0.006 | [8] 0.028 | [9] 0.068 | IRAK-1-4 Inhibitor I 0.063 | ibrutinib 0.015 | [10] -0.029 | ralimetinib -0.031 | [11] 0.028 | [12] 0.086 | [13] 0.019 | pinometostat -0.03 | [14] 0.014 | [15] -0.042

NDUFB5 (UniProt O43674)
inactive: erlotinib 0.071 | [1] -0.007 | [2] 0.042 | [3] -0.042 | [4] 0.006 | [5] 0.038 | [6] -0.017 | [7] -0.015 | [8] 0.026 | [9] 0.006 | IRAK-1-4 Inhibitor I 0.005 | ibrutinib 0.011 | [10] 0.014 | ralimetinib -0.041 | [11] -0.041 | [12] -0.04 | [13] 0.051 | pinometostat -0.018 | [14] -0.003 | [15] -0.013

NDUFV3 isoform 2 (UniProt P56181)
inactive: erlotinib -0.05 | [1] -0.078 | [2] -0.02 | [3] 0.038 | [4] -0.051 | [5] 0.03 | [6] -0.048 | [7] -0.028 | [8] 0.044 | [9] 0.041 | IRAK-1-4 Inhibitor I 0.059 | ibrutinib 0.04 | [10] 0.035 | ralimetinib -0.004 | [11] 0.012 | [12] 0.11 | [13] 0.167 | pinometostat 0 | [14] 0.043 | [15] -0.056

NCAPD3 (UniProt P42695)
inactive: erlotinib 0.022 | [1] -0.024 | [2] -0.039 | [3] -0.048 | [4] 0.009 | [5] -0.005 | [6] -0.028 | [7] -0.081 | [8] -0.024 | [9] -0.043 | IRAK-1-4 Inhibitor I -0.041 | ibrutinib -0.056 | [10] -0.038 | ralimetinib -0.028 | [11] -0.065 | [12] -0.013 | [13] 0.039 | pinometostat 0.059 | [14] -0.019 | [15] 0.11

NAGK isoform 2 (UniProt Q9UJ70)
inactive: erlotinib -0.006 | [1] -0.029 | [2] 0.022 | [3] 0.022 | [4] 0.054 | [5] -0.021 | [6] -0.024 | [7] -0.005 | [8] 0.008 | [9] 0.029 | IRAK-1-4 Inhibitor I 0.042 | ibrutinib 0.005 | [10] -0.002 | ralimetinib -0.026 | [11] 0.061 | [12] 0.045 | [13] -0.003 | pinometostat -0.033 | [14] -0.048 | [15] 0.027

NCOA6 (UniProt Q14686)
inactive: erlotinib -0.064 | [1] -0.015 | [2] -0.085 | [3] 0.123 | [4] 0.086 | [5] -0.021 | [6] 0.058 | [7] -0.005 | [8] 0.039 | [9] 0.025 | IRAK-1-4 Inhibitor I -0.023 | ibrutinib -0.088 | [10] -0.099 | ralimetinib -0.02 | [11] -0.01 | [12] 0.061 | [13] 0.023 | pinometostat 0.04 | [14] -0.009 | [15] -0.186

MYO9B (UniProt Q13459)
inactive: erlotinib -0.024 | [1] 0.035 | [2] -0.138 | [3] -0.013 | [4] 0.088 | [5] -0.099 | [6] 0.026 | [7] -0.058 | [8] 0.047 | [9] -0.229 | IRAK-1-4 Inhibitor I -0.09 | ibrutinib -0.026 | [10] 0.081 | ralimetinib 0.087 | [11] 0 | [12] -0.143 | [13] 0.113 | pinometostat 0.224 | [14] -0.044 | [15] 0

NAXD (UniProt Q8IW45)
inactive: erlotinib 0.017 | [1] 0.024 | [2] 0.062 | [3] 0.022 | [4] -0.102 | [5] -0.011 | [6] -0.01 | [7] 0.02 | [8] -0.068 | [9] 0.076 | IRAK-1-4 Inhibitor I 0.051 | ibrutinib 0.053 | [10] 0.004 | ralimetinib -0.064 | [11] 0.012 | [12] 0.028 | [13] -0.032 | pinometostat -0.044 | [14] 0.004 | [15] -0.072

NDUFS5 (UniProt O43920)
inactive: erlotinib 0.039 | [1] 0.001 | [2] 0.017 | [3] -0.031 | [4] 0.01 | [5] -0.006 | [6] -0.029 | [7] -0.045 | [8] 0.005 | [9] 0.01 | IRAK-1-4 Inhibitor I 0.057 | ibrutinib 0.02 | [10] -0.027 | ralimetinib -0.057 | [11] -0.009 | [12] -0.053 | [13] 0.026 | pinometostat 0.02 | [14] 0.012 | [15] 0.003
